Assay results: patent US9132191B2, “Compositions and methods of preventing or ameliorating abnormal thrombus formation and cardiovascular disease” (Yale University, priority 2011, dated 2015)
At least one structure is not confirmed: it was looked up by name or label, or the drawing left a doubt.

Columns and labels:
Format in all cases: cell-based, human
[1] = tested on: thromboxane receptor (TP); assay: Surface expression of thromboxane receptor in collagen-stimulated platelets; settings: HG; 1 μg/mL collagen; epalrestat 10 μmol/L, NAC, apocynin
Experimental: Primary antibodies against the following proteins were diluted and used according to the manufacturer's instructions: AR (sc-17732, Santa Cruz Biotechnology), PKC α (sc-208, Santa Cruz Biotechnology) and its phosphorylated form (sc-136018, Thr638, Santa Cruz Biotechnology), PKC βII (NB110-57358, Novus Biologicals) and its phosphorylated form (NSB964, Thr641, Novus Biologicals), PKC δ (2058, Cell Signaling) and its phosphorylated form (9376, Ser643, Cell Signaling), PLC-γ1 (H00005335-A01, Novus Biologicals) and its phosphorylated form (07866, Tyr783, Millipore), PLC-γ2 (NB110-66669, Novus Biologicals) and its phosphorylated form (NB110-57424, Tyr1217, Novus Biologicals), p38α MAPK (9212, Cell Signaling) and its phosphorylated form (AF869, T180/Y182, R&D Systems), and TX receptor (NBP1-40198, Novus Biologicals). Secondary antibodies against rabbit and mouse IgG (Thermo Scientific) were diluted 1:5000 before use. The membrane was re-probed with antibodies against Na^+/K^+-ATPase (NB300-147, Novus Biologicals), a plasma membrane marker, and GAPDH (sc-20357, Santa Cruz Biotechnology), a cytoplasmic marker, for normalization.
Platelets were sedimented by centrifugation at 2,500 g for 5 min. The membrane and cytosolic fractions of total extracts were separated using the subcellular protein fractionation kit (Thermo Scientific). […]

p38α MAPK = p38α MAPK phosphorylation in collagen-stimulated platelets (phospho-kinase array, Western blot)
Experimental: Platelets were homogenized in the lysis buffer (25 mmol/L Tris HCl, pH 7.6, 150 mmol/L NaCl, 1% NP-40, 1% sodium deoxycholate, 0.1% SDS) with the addition of 0.1% protease inhibitor and 0.1% phosphatase inhibitor (Thermo Scientific). The supernatant was collected after centrifugation at 13,000 rpm for 15 min at 4° C. The samples are loaded in 4×SDS-Laemmli sample buffers and boiled for 10 min. Equal amounts of total extracts were subjected to SDS-PAGE. The proteins were transferred to nitrocellulose membrane and probed with the indicated antibodies, and the antigen-antibody complex was detected by enhanced chemiluminescence reagents (Thermo Scientific). […]
The human phospho-kinase array was performed according to the manufacturer's instruction (R&D Systems). […] The signals for the amount of phosphorylated proteins bound were measured by the chemiluminescent detection method.

[2] = tested on: PKC isoforms (α, βII & δ); assay: Translocation of PKC isoforms (α, βII & δ) in collagen-stimulated platelets (subcellular fractionation, Western); settings: 10 μmol/L epalrestat

What does the source list for CC(/C=C1\SC(=S)N(CC(=O)O)C1=O)=C\c1ccccc1 [epalrestat, 2-[(5Z)-5-[(E)-3-phenil-2-methylprop-2-enylidene]-4-oxo-2-thioxo-3-thiazolidinyl]acetic acid]?
surface expression of TX receptor (TP) [1]: significantly abolished; p38α phosphorylation (phospho-kinase array) (p38α MAPK; 10 μmol/L epalrestat, 1 μg/mL collagen, NG): markedly attenuated; collagen-induced phosphorylation of p38α MAPK (Western blot) (p38α MAPK; NG and HG, 1 μg/mL collagen 10 min, epalrestat 10 μmol/L, U73122, NAC 1 mmol/L, quercetin 10 μmol/L): inhibition; levels of PKC-βII & δ in the membrane fraction ([2]; HG, with or without 1 μg/mL collagen): attenuated; collagen-induced translocation of PKC-α to membrane ([2]; NG and HG): prevented the collagen-induced translocation of PKC-α
